In patent US12325747:
These are yes or no findings as the source states them, for the method shown. Some binding calls cover weakened binding; strength is not graded here.

Protein sequences, listed by entry. Tags and fused reporters are not part of them. Lines headed by an entry give the natural chain unless they say otherwise; changes in a name come on top.
UniProt Q9NZQ7: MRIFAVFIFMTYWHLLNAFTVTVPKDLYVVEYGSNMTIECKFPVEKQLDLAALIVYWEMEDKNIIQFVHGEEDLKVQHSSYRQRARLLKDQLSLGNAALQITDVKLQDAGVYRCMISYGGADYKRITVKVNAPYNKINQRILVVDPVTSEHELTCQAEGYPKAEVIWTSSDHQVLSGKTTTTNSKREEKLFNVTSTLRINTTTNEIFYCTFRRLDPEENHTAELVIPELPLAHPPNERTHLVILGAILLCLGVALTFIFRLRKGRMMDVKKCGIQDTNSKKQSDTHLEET

Biological target: PD-L1 on CHO-PD-L1 cells (human) (UniProt Q9NZQ7)
Assay: flow cytometry blocking assay 'CHO-PDL1 : PD-1 Alexa 532'; blocked ligand Alexa 532 labelled PD-1; one antibody concentration; both panels

binding | Binder
binds | ADI-16403 (antibody, human IgG1, V domains shown) VH: EVQLVESGGGLVQPGGSLRLSCAASGFTFSSYWMSWVRQAPGKGLEWVANIKSDGSEKYYVDSVKGRFTISRDNAKNSLYLQMNSLRAEDTAVYYCARVTYWADYMDVWGKGTTVTVSS VL: DIQMTQSPSTLSASVGDRVTITCRASQSISSWLAWYQQKPGKAPKLLIYKASSLESGVPSRFSGSGSGTEFTLTISSLQPDDFATYYCQQSGSLPPTFGGGTKVEIK
binds | ADI-16377 (antibody, human IgG1, V domains shown) VH: QVQLVQSGAEVKKPGASVKVSCKASGYTFTSYYMHWVRQAPGQGLEWMGIINPSGGSTSYAQKFQGRVTMTRDTSTSTVYMELSSLRSEDTAVYYCARDPLMSGTRWLFDIWGQGTMVTVSS VL: DIQMTQSPSSVSASVGDRVTITCRASQGISSWLAWYQQKPGKAPKLLIYAASSLQSGVPSRFSGSGSGTDFTLTISSLQPEDFATYYCQQVHHFPPTFGGGTKVEIK
